Laboratory results as given in the supplement of paper PMC7661543.
The effect of the compound repeats well; differences between the knockouts mostly do not.

Key:
HCC-38 = experiment: relative cell number vs DMSO control (72 h) (% of DMSO); higher = less growth inhibition (more cells)
Procedure: (§1)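 QMAP-Seq: a pool of 5 breast cancer cell lines (ZR-75-1, SKBR3, HCC-38, MDA-MB-231, BT-20), each carrying 12 doxycycline-inducible Cas9 sgRNA perturbations (11 knockouts plus non-targeting sgNT), was treated with compounds for 72 h at four 10-fold doses (10 nM-10 uM or 1 nM-1 uM range). Barcodes were amplified and sequenced, and cell number was interpolated from 293T spike-in standard curves. The result is expressed as % of the median of DMSO wells. Two biological replicates.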

BT-20 = experiment: as above
Procedure: as §1

CC(C)(C(=O)NCC(F)(F)C(F)(F)F)C(=O)N[C@@H]1C(=O)Nc2ccccc2-c2ccccc21
relative cell number
Conditions	BT-20	HCC-38
sgRNA knockout: sgATF3, 10 nM	96.2	115
sgRNA knockout: sgATF3, 100 nM	105	119
sgRNA knockout: sgATF3, 1000 nM	113	101
sgRNA knockout: sgATF3, 10000 nM	120	120.7
sgRNA knockout: sgATF4, 10 nM	104	117.34
sgRNA knockout: sgATF4, 100 nM	122	105
sgRNA knockout: sgATF4, 1000 nM	119.4	107
sgRNA knockout: sgATF4, 10000 nM	123	109
sgRNA knockout: sgATF6, 10 nM	105	100
sgRNA knockout: sgATF6, 100 nM	100.4	125
sgRNA knockout: sgATF6, 1000 nM	92.5	108
sgRNA knockout: sgATF6, 10000 nM	116	121
sgRNA knockout: sgATG7, 10 nM	98.8	123
sgRNA knockout: sgATG7, 100 nM	109	108
sgRNA knockout: sgATG7, 1000 nM	104	104
sgRNA knockout: sgATG7, 10000 nM	111	122
sgRNA knockout: sgERN1, 10 nM	98.4	111
sgRNA knockout: sgERN1, 100 nM	106	108
sgRNA knockout: sgERN1, 1000 nM	107	115
sgRNA knockout: sgERN1, 10000 nM	116	115
sgRNA knockout: sgHSF1, 10 nM	88	100
sgRNA knockout: sgHSF1, 100 nM	103	140
sgRNA knockout: sgHSF1, 1000 nM	110	123
sgRNA knockout: sgHSF1, 10000 nM	108	118
sgRNA knockout: sgHSF2, 10 nM	89.6	117
sgRNA knockout: sgHSF2, 100 nM	113	122
sgRNA knockout: sgHSF2, 1000 nM	132	107
sgRNA knockout: sgHSF2, 10000 nM	124	122
sgRNA knockout: sgKEAP1, 10 nM	96.6	125
sgRNA knockout: sgKEAP1, 100 nM	87.6	131
sgRNA knockout: sgKEAP1, 1000 nM	100	121
sgRNA knockout: sgKEAP1, 10000 nM	113	148
sgRNA knockout: sgNFE2L2, 10 nM	111	119
sgRNA knockout: sgNFE2L2, 100 nM	125	99.5
sgRNA knockout: sgNFE2L2, 1000 nM	124	103.2
sgRNA knockout: sgNFE2L2, 10000 nM	138	106
sgRNA knockout: sgSLC35F2, 10 nM	92.6	112
sgRNA knockout: sgSLC35F2, 100 nM	105	107
sgRNA knockout: sgSLC35F2, 1000 nM	96.8	101
sgRNA knockout: sgSLC35F2, 10000 nM	122	110
sgRNA knockout: sgXBP1, 10 nM	108	113
sgRNA knockout: sgXBP1, 100 nM	123.4	110
sgRNA knockout: sgXBP1, 1000 nM	123	107
sgRNA knockout: sgXBP1, 10000 nM	129	109
